The list shows a part of the results. The main result of the screen is listed elsewhere. These columns were measured beside it and carry no call. The list favours compounds with an active or inconclusive main result. The note in brackets gives the kind of curve behind each potency; many fits are weak.

Results on 62 compounds are retold here after PubChem BioAssay AID493014 (National Center for Advancing Translational Sciences (NCATS), 2011).

The nature of this test: qHTS Assay to Find Inhibitors of Chronic Active B-Cell Receptor Signaling. The note with it: ABC-DLBCL IkBa-CBG/CBR reporter, luminescence ratio (green luciferase fused to IkBa over red control in TMD8 lymphoma cells), 4 h. In outline:
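Concentration-response series (up to 46 uM) were applied to TMD8 dual-reporter cells for 4 h at 37C with doxycycline. Green/red ratio, after filter-overlap correction, defined %Activity; red signal alone was normalised to basal cells and zero luminescence.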

The mark [1] stands for this setting: measured here: CBR red luminescence, cell number.
Where [2] appears, read: measured here: IkBa-CBG green luminescence.

In the case of `CCOC(=O)CCc1c(C)c2ccc3c(c2oc1=O)CN(CCCO)CO3`, the AC50 under setting [1] was 1.58 µM [rising, full curve, poor fit].

For `Cc1[nH]cnc1C(=O)N/N=C/c1ccc([N+](=O)[O-])s1`, under setting [1], the AC50 was 35.5 µM [falling, single point].

As to `NC(=O)[C@@H]1CC2(CC(c3cccc(NC(=O)COc4ccc(Cl)cc4)c3)=NO2)CN1C(=O)COc1ccc(Cl)cc1` (stereo partly drawn), the AC50 under setting [1] was 20 µM [falling, partial curve].

For the compound `Nc1[nH]c(N=NC(=O)c2ccc(Cl)cc2)c2ccccc12`, the AC50 under setting [1] is 7.31 µM [falling, partial curve].

With `O=c1c(-c2cccc([N+](=O)[O-])c2)[n+]([O-])c2ccccc2n1O`, under setting [1], the AC50 was 1 µM [rising, partial curve].

For `CCCCOc1ccc(CONS(=O)(=O)c2ccc(NC(C)=O)cc2)cc1Cl`, under setting [1], the AC50 is 18.4 µM [falling, single point].

For the compound `CCn1cc(C(=O)N2CCCC2)c(=O)c2cc(S(=O)(=O)N(C)C)ccc21`, the AC50 under setting [1] is 5.8 µM [rising, full curve, poor fit].

Consider `COc1ccc([C@H]2CC(=O)C=C(c3cccc(Cl)c3O)C2)cc1OC`, for which the AC50 under setting [1] is 4.11 µM [falling, full curve, poor fit].

In the case of `CC(C)n1cnc2cc(NCc3ccccn3)ccc21`, under setting [1], the concentration at half-maximal activity (AC50) was 29.1 µM [falling, single point].

On to `CCN(CC)c1ccc(/C=N/NC(=S)NCc2ccc(OC)cc2)cc1`, for which the AC50 under setting [1] was 7.31 µM [rising, partial curve].

`Cc1cc(C(=O)NNC(=O)c2cccc(Cl)c2)no1`: the AC50 under setting [1] is 11.2 µM [falling, partial curve].

Take `COc1cc(C(=O)NCc2nnc(SCC(=O)N3CCc4ccccc43)o2)cc(OC)c1OC`: the AC50 under setting [1] was 29.1 µM [rising, single point].

For `Cc1cccn2c3c(c(=O)nc12)C(c1ccc(F)cc1)CC(=O)N3` (stereo not drawn), under setting [1], the AC50 is 8.91 µM [falling, partial curve, poor fit].

As for `COc1cc(-c2n[nH]c(=S)n2-c2cccc(C(F)(F)F)c2)cc(OC)c1OC`, the AC50 under setting [1] was 16.4 µM [rising, single point].

On to `O=S(=O)(NCC(c1ccco1)N1CCN(c2ccccc2)CC1)c1ccccc1` (stereo not drawn), for which, under setting [1], the AC50 was 2.51 µM [rising, full curve, poor fit].

As for `COc1ccc(S(=O)(=O)NCC(c2ccc(C)cc2)N2CCN(C)CC2)cc1` (stereo not drawn), under setting [1], the AC50 was 6.51 µM [rising, single point].

`Cc1ccc(C(=O)N2CCN(c3cccc(Cl)c3)CC2)cc1C`: the AC50 was 18.4 µM [falling, partial curve] under setting [1] and 16.4 µM [rising, partial curve, poor fit] under setting [2].

Regarding `COc1cc(SC)ccc1C(=O)OCC(=O)N1CC(=O)Nc2ccccc21`, the AC50 under setting [1] is 11.6 µM [rising, partial curve].

`CCN(Cc1ccncc1)Cc1c(O)ccc2ccccc12`: the AC50 under setting [1] is 7.08 µM [falling, partial curve, poor fit].

As to `C/C(=N\NC(N)=S)c1ccccc1`, under setting [1], the AC50 is 11.2 µM [rising, partial curve, poor fit].

Take `Cc1ccc([N+](=O)[O-])cc1NC(=O)C1CCN(S(C)(=O)=O)CC1`: the AC50 under setting [1] was 20.6 µM [rising, single point].

As to `CC1CCCCN1C(=S)Nc1ccc(OC(F)F)cc1` (stereo not drawn), under setting [1], the AC50 is 25.9 µM [rising, single point].

As for `Cc1ccc(NC(=O)c2ccc(S(=O)(=O)N3CCCCC3)cc2)cc1`, the AC50 under setting [1] is 2.51 µM [falling, partial curve, poor fit].

With `COc1ccccc1NC(=O)c1c(Nc2ccccc2C)sc(C(=O)Nc2cccc(Cl)c2)c1N`, the AC50 under setting [1] was 18.4 µM [falling, single point] and the AC50 under setting [2] was 23.1 µM [rising, single point].

With `COc1ccc(CCNc2nc(-c3cccc(NC(C)=O)c3)cs2)cc1OC`, under setting [1], the AC50 was 35.5 µM [falling, single point].

With `c1ccc(Cn2c(NCc3ccncc3)nc3ccccc32)cc1`, under setting [1], the AC50 is 5.62 µM [falling, single point].

Turning to `CC1CN(c2nc3ccccn3c(=O)c2/C=C(\C#N)C(N)=O)CC(C)O1` (stereo not drawn), the AC50 under setting [1] is 31.6 µM [rising, single point].

Regarding `CCOc1ccc(N2C(=O)C(CC(=O)Nc3ccc(F)cc3)N(Cc3ccccn3)C2=S)cc1` (stereo not drawn), under setting [1], the AC50 is 28.2 µM [falling, single point].

Regarding `Cc1ccc(NC(=O)CN2C(=O)NC3(CCc4ccccc43)C2=O)cc1S(=O)(=O)N1CCCCC1` (stereo not drawn), the AC50 under setting [1] was 5.17 µM [falling, partial curve, poor fit] and the AC50 under setting [2] is 3.26 µM [rising, partial curve, poor fit].

Regarding `O=C(CN1CCN(c2ccc(F)cc2)CC1)NCc1ccc(Cl)cc1`, the AC50 under setting [1] was 6.31 µM [falling, partial curve, poor fit].

Regarding `CCn1cc(S(=O)(=O)N2CCCC2)cn1`, the AC50 under setting [1] is 35.5 µM [falling, partial curve, poor fit].

With `Cc1ccc(C)c(NC(=S)N2CCC(c3nc4ccccc4s3)CC2)c1`, the AC50 under setting [1] was 35.5 µM [falling, partial curve, poor fit].

Consider `O=C(Cc1ccc(Br)cc1)NCCc1ccc(Cl)cc1Cl`, for which, under setting [1], the AC50 was 0.082 µM [falling, full curve, poor fit].

For `Cc1c(C#N)c2ccccc2n1CCOc1ccccc1F`, the AC50 under setting [1] was 22.4 µM [falling, single point].

For `O=C(COC(=O)c1ccc(O)cc1)NCc1ccc2c(c1)OCO2`, the AC50 under setting [1] is 31.6 µM [falling, single point].

With `C=CC[C@@H](CC(=O)N(CCO)Cc1ccccc1)C(=O)N[C@H](COC(=O)[C@@H](CC=C)CC(=O)OC(C)(C)C)c1ccccc1`, under setting [1], the AC50 was 16.4 µM [falling, single point].

With `C(=N\NC1=Nc2cccc3cccc1c23)/c1ccccc1`, under setting [1], the AC50 was 20.6 µM [falling, partial curve].

For `CCOC(=O)c1c(NC(=O)CNCC(O)CO)sc(C)c1C` (stereo not drawn), the AC50 under setting [1] was 10 µM [falling, partial curve, poor fit].

Consider `C/C(=N\NC(=O)Nc1ccccc1)c1ccccc1`, for which the AC50 under setting [1] was 6.51 µM [rising, single point].

Regarding `Cc1ccccc1-c1nnn(Cc2ccc(-c3nn[nH]n3)cc2)n1`, the AC50 under setting [1] is 35.5 µM [falling, single point].

With `O=C(CCC(=O)N1CCN(c2ccccn2)CC1)Nc1nnc(C2CCCCC2)s1`, under setting [1], the AC50 was 15.8 µM [rising, partial curve, poor fit].

`COC(=O)CSc1nnc(-c2ccc(OC)c(OC)c2)o1`: the AC50 under setting [1] was 35.5 µM [falling, single point].

Turning to `CC1=CC(C)(C)Nc2ccc(OC(=O)c3cccnc3)cc21`, the AC50 under setting [1] is 3.16 µM [falling, full curve, poor fit].

`Cc1nc2ccccn2c1-c1csc(NCc2ccco2)n1`: under setting [1], the AC50 was 25.9 µM [rising, partial curve].

For `CCO[C@@H]1OC(C(=O)Nc2ccccc2)=C[C@H](C2CC2)[C@H]1CCCO`, under setting [1], the AC50 is 0.708 µM [rising, full curve, poor fit].

Take `O=S(=O)(NCc1ccncc1)c1ccc(Br)s1`: under setting [2], the AC50 was 6.51 µM [rising, single point].

For the compound `C/C(=N\Nc1nccnc1Cl)c1ccc(F)cc1`, the AC50 under setting [1] was 12.6 µM [falling, partial curve, poor fit].

Regarding `Cn1c(=NC(=O)c2cccc([N+](=O)[O-])c2)sc2ccccc21`, the AC50 under setting [1] is 0.0891 µM [rising, full curve, poor fit].

Regarding `COc1ccc(CCNC(=O)c2c(-c3ccccc3Cl)noc2C)cc1`, the AC50 under setting [1] is 13 µM [rising, partial curve, poor fit].

On to `Fc1ccc(NC(=S)N/N=C/c2ccc(F)c(F)c2)cc1`, for which the AC50 under setting [2] is 8.91 µM [falling, partial curve].

Consider `Cc1ccc(C)c(OCc2cc(C(=O)N3CCNC(=O)C3)no2)c1`, for which, under setting [1], the AC50 was 5.62 µM [rising, single point].

On to `O=C(Nc1nnc(Cc2ccccc2)s1)Nc1ccccc1F`, for which the AC50 under setting [1] was 2.51 µM [rising, partial curve, poor fit].

On to `Oc1cc(-c2ccncc2)cc2cccnc12`, for which the AC50 under setting [1] is 18.4 µM [falling, partial curve].

`Cc1ccc(/C=C/C(=O)Nc2ccc(Oc3ccccc3)cc2)o1`: the half-maximal activity concentration (AC50) under setting [1] is 13 µM [falling, partial curve, poor fit].

Turning to `COc1cc(C(=O)Nc2ccc3c(c2)N(C(=O)CCN(C)C)c2ccccc2CC3)cc(OC)c1OC`, the AC50 under setting [1] was 35.5 µM [falling, single point].

In the case of `CC(NC(=O)c1ccco1)c1nc(-c2ccccc2)no1` (stereo not drawn), the AC50 under setting [1] is 35.5 µM [rising, partial curve, poor fit].

In the case of `CCOC(=O)C1=C(C)N(CC)C(=S)NC1c1ccc(Cl)cc1` (stereo not drawn), the AC50 was 18.4 µM [falling, partial curve] under setting [1] and 16.4 µM [rising, partial curve, poor fit] under setting [2].

Regarding `CN1CCC(N(C)C(=O)COc2ccccc2Cl)CC1`, the AC50 under setting [1] is 0.82 µM [rising, full curve, poor fit].

In the case of `Cc1cc2nc(-c3ccccc3)cc(=O)n2[nH]1`, under setting [1], the AC50 was 0.178 µM [falling, full curve, poor fit].

With `O=C(CCCN1C(=O)c2cccc3cccc(c23)C1=O)N1CCN(c2ccccc2O)CC1`, the AC50 is 2.31 µM [rising, partial curve, poor fit] under setting [1] and 23.1 µM [rising, partial curve, poor fit] under setting [2].

On to `O=C1COc2ccc(C(=O)COC(=O)c3ccc([N+](=O)[O-])cc3Cl)cc2N1`, for which the AC50 under setting [1] was 6.51 µM [rising, single point] and the AC50 under setting [2] was 5.17 µM [falling, partial curve, poor fit].

Regarding `COc1cc(/C=N/OCC(=O)NC2CCCCC2)ccc1OCc1ccccc1`, under setting [1], the AC50 is 0.00517 µM [rising, full curve, poor fit].
